Screening data, single-dose tests

Amino acid sequences for entries named in this document (tags omitted).
UniProt P9WFT3, whole entry: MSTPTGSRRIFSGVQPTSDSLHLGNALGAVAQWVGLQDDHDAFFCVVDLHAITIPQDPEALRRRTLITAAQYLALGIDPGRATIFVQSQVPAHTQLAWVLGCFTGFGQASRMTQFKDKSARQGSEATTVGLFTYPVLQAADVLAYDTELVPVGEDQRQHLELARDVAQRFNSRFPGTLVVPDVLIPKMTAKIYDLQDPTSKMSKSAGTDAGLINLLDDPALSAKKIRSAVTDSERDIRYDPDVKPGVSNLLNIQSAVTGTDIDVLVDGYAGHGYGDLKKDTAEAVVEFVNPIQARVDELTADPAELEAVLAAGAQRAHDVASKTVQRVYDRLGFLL
UniProt P9WPC5, whole entry: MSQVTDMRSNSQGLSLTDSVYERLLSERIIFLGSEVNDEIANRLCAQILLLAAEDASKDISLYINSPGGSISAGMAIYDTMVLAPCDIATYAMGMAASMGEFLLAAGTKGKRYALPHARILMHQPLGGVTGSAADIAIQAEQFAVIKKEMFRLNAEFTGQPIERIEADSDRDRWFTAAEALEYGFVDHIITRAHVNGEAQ
UniProt P9WPC3, whole entry partner: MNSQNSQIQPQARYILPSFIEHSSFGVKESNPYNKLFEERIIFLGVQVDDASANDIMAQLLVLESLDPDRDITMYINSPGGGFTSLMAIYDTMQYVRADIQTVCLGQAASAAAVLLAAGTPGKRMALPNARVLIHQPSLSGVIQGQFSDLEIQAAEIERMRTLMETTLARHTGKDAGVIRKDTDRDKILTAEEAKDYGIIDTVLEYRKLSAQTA

Measurements from “University of Dundee, Small-Polar-MMV Screening Library” (2021), ChEMBL document CHEMBL3988442.

Each number is a percent effect as filed.
The record does not define 0% and 100%; most values in the screen are far below 50% and negative numbers occur (in some assays of this library far below -100).
The compounds are a random part of those screened.

MtTrpRS: 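Enzyme assay of tryptophanyl-tRNA synthetase; the read-out is not stated. Target: Tryptophan-tRNA ligase, Mycobacterium tuberculosis (UniProt P9WFT3). Tested at 10 µM. Higher most likely means stronger inhibition; the record gives no direction and few retests gave an IC50. Of about 65,000 compounds tested this way, about 64 (0.098%) reached 50% or more in at least one test.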
ClpP1P2: 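Protease assay of ClpP1P2, read by the AMC dye that it sets free. Target: ClpP1P2, Mycobacterium tuberculosis (UniProt P9WPC5 and UniProt P9WPC3). Compounds at 50 µM. Higher reads as stronger inhibition, judged from the few compounds that gave an IC50. Most other retested compounds had strongly negative values. Of about 69,000 compounds tested this way, about 10 (0.015%) reached 50% or more in at least one test.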

CC(=O)N1CCN(CC(N)=O)CC(COc2ccccc2)C1 (configuration not stated) gave ClpP1P2: 13.51%. CN(C)c1nc2c(c(=O)[nH]1)CCN(C(=O)c1c[nH]c(=O)c(Cl)c1)C2 read MtTrpRS: 5.68%; ClpP1P2: 13.15%. For Cn1nc(-c2ccc(F)cc2)cc1C(=O)NCCn1ccnc1 the result was MtTrpRS: -0.07807%; ClpP1P2: -5.77%. With CC(C)n1cnnc1CN(C)C(=O)c1ccc[nH]1 the screen gave MtTrpRS: 1.591%; ClpP1P2: 5.997%. For CO[C@@H]1CC[C@H]2[C@H]1OCCN2C(=O)c1ccco1 the result was MtTrpRS: -4.941%; ClpP1P2: -12.74%. Result for CNC(C)Cc1ccccc1Sc1ccc(O)cc1 (configuration not stated) was MtTrpRS: 4.976%; ClpP1P2: 10.1%. CC1COCCN1C(=O)Nc1cnc2c(cnn2C(C)C)c1 (configuration not stated) read MtTrpRS: -11.75%; ClpP1P2: -47.55%. Cc1occc1C(=O)N1CCCN(Cc2cnn(C(C)C)c2)CC1 gave MtTrpRS: -0.2349%; ClpP1P2: -8.58%.

With CC(C)c1noc(OCc2cccc(C#N)c2)n1 the screen gave MtTrpRS: -1.611%; ClpP1P2: -11.93%. With O=C(CCCN1CCCCC1)N1CCC(c2nnc[nH]2)CC1 the screen gave MtTrpRS: -1.374%; ClpP1P2: -0.9113%. For O=C(O)C[C@@H]1CCN(C(=O)c2cccs2)C[C@@H]1CCN1CCCCC1 the result was MtTrpRS: 1.883%; ClpP1P2: -7.66%. Result for COc1cc(C)nc(N2CCN(C(=O)c3cc(C)no3)CC2)n1 was MtTrpRS: 22.46%; ClpP1P2: -7.527%. Result for Cc1noc(Cl)c1CC(=O)N1CCC(Nc2cccnn2)CC1 was MtTrpRS: -6.717%; ClpP1P2: -29.31%. Result for O=C(c1cccc(F)c1)N1CCCC1c1ncc2c(n1)CCNC2 (configuration not stated) was ClpP1P2: -1.214%. Result for c1cncc(-c2nc3c(c(NCC4(c5ccncc5)CC4)n2)CCC3)c1 was MtTrpRS: -1.008%; ClpP1P2: -3.984%. For CNS(=O)(=O)CCNCC1(O)CCCN(CCC2CCCCC2)C1=O (configuration not stated) the result was MtTrpRS: 0.6522%; ClpP1P2: 0.5504%.

With CCc1ccc(CC(=O)N2CCN(c3nccn3C)CC2)cc1 the screen gave MtTrpRS: 2.788%; ClpP1P2: 13.98%. With CN(CC1(CO)CCCC1)[C@@H]1c2ccccc2C2(CCNCC2)[C@H]1O the screen gave MtTrpRS: -2.638%; ClpP1P2: -13.18%. For O=C(NCCc1nnc2n1CCC2)c1ccccc1OC1CCCC1 the result was MtTrpRS: -2.812%; ClpP1P2: -2.665%. With CN(C)Cc1noc2c1CN(Cc1ccsc1)CC2 the screen gave MtTrpRS: 3.391%; ClpP1P2: 8.069%. For O=C1NCCCCC1NCc1csc(-c2ccsc2)n1 (configuration not stated) the result was MtTrpRS: 5.573%; ClpP1P2: 4.588%. CSc1nc2cc(C)n(CC(=O)N3CCCC3)c2c(=O)n1CC(C)C gave MtTrpRS: -4.811%; ClpP1P2: -6.178%. Result for Nc1ncccc1C(=O)NCc1cccc(Br)c1 was MtTrpRS: 10.11%; ClpP1P2: 15.42%. O=C(O)Cn1nc(C2CC2)c2c(-c3ccco3)ccnc21 read MtTrpRS: 7.184%; ClpP1P2: -13.51%.

Result for COCCO[C@H]1CCN(C(=O)c2cccnc2)[C@H]1Cc1cnn(C)c1 was MtTrpRS: 7.198%; ClpP1P2: -0.75%. CNC(=O)C1CCCCN1C(=O)c1csc(-c2ccc(C)cc2)n1 (configuration not stated) gave MtTrpRS: -0.6796%; ClpP1P2: 7.801%. O=C(C1CCOCC1)N1CCOC(CC2CCCCC2)C1 (configuration not stated) gave MtTrpRS: -0.4955%; ClpP1P2: -6.989%. With c1ccc(NCc2cn3c(n2)CN(Cc2ccoc2)CC3)nc1 the screen gave MtTrpRS: -2.013%; ClpP1P2: -8.389%. CCc1nc(C2CCCN2CC(=O)Nc2cc(C)nn2C)no1 (configuration not stated) gave MtTrpRS: -5.423%; ClpP1P2: -15.1%. O=C(NC[C@H]1OC[C@@H](NC(=O)C2CCCC2)[C@@H]1O)c1ccncc1 read MtTrpRS: 1.602%; ClpP1P2: -14.06%. CCN1CCCC1CNCc1cc2cc(OC)ccc2[nH]c1=O (configuration not stated) gave MtTrpRS: 0.2038%; ClpP1P2: -143.1%. For O=S1(=O)C[C@@H]2[C@H](C1)N(Cc1cc(F)cc(Cl)c1)CCN2CCO the result was MtTrpRS: -1.786%; ClpP1P2: -5.011%.

Cc1cccc(CN2C[C@@H]3CN(C(=O)[C@H]4CCCO4)C[C@@H]3C2=O)c1 read MtTrpRS: -0.07633%; ClpP1P2: 15.85%. Cc1ccc(-c2ccccc2CC2CNCCNC2=O)c(C)c1 (configuration not stated) gave MtTrpRS: 11.42%; ClpP1P2: -13.29%. For COc1ccc(OC)c(CNC2CCCN(c3cccnn3)C2)c1 (configuration not stated) the result was MtTrpRS: -1.176%; ClpP1P2: -19.43%. Result for O=C(C1CCOCC1)N1CCO[C@H]2[C@@H](OCC3CC3)CC[C@@H]21 was MtTrpRS: -1.936%; ClpP1P2: -1.933%. O=C(NCCn1ccnc1)N1CCCC1c1ccc2c(c1)OCCO2 (configuration not stated) gave MtTrpRS: 1.738%; ClpP1P2: -5.196%. For Cc1ccc(-c2cccc(CC3(C(=O)O)CCOCC3)c2)c(C)c1 the result was ClpP1P2: 6.024%. Cc1nc2cc(C3CCOCC3)nn2c(NCC2COCCO2)c1C (configuration not stated) read MtTrpRS: 7.768%; ClpP1P2: -5.715%. Result for NC(=O)c1cnc(NCC(=O)NCc2ccco2)c(Cl)c1 was MtTrpRS: -1.467%; ClpP1P2: 2.258%.

Cc1noc(C)c1CN(C)C(=O)c1ccc(NC2CC2)nc1 gave MtTrpRS: 0.2924%; ClpP1P2: -0.212%. With O=C(CCS(=O)(=O)C1CCCC1)NCCc1ccc2c(c1)OCCO2 the screen gave MtTrpRS: -3.857%; ClpP1P2: 4.87%. For O=S(=O)(Nc1cnc(N2CCOCC2)nc1)c1ccc(Cl)cc1 the result was MtTrpRS: -1.341%; ClpP1P2: -27.94%. Result for Cc1cc(CN2CCN(c3ccc4nncn4n3)CC2)no1 was MtTrpRS: -5.161%; ClpP1P2: -6.556%. Cn1ccnc1CNc1ccc(F)c(N2CCCS2(=O)=O)c1 read MtTrpRS: 1.788%; ClpP1P2: -9.163%. COc1ccnc(CN2CCCC(CCc3ccccc3)C2)c1OC (configuration not stated) read MtTrpRS: -1.592%; ClpP1P2: -15.47%.

Some entries from above, unchanged:

For CC(C)n1cnnc1CN(C)C(=O)c1ccc[nH]1 the result was MtTrpRS: 1.591%; ClpP1P2: 5.997%.
For c1ccc(NCc2cn3c(n2)CN(Cc2ccoc2)CC3)nc1 the result was MtTrpRS: -2.013%; ClpP1P2: -8.389%.
For CO[C@@H]1CC[C@H]2[C@H]1OCCN2C(=O)c1ccco1 the result was MtTrpRS: -4.941%; ClpP1P2: -12.74%.
For NC(=O)c1cnc(NCC(=O)NCc2ccco2)c(Cl)c1 the result was MtTrpRS: -1.467%; ClpP1P2: 2.258%.
For O=S1(=O)C[C@@H]2[C@H](C1)N(Cc1cc(F)cc(Cl)c1)CCN2CCO the result was MtTrpRS: -1.786%; ClpP1P2: -5.011%.
For Cn1ccnc1CNc1ccc(F)c(N2CCCS2(=O)=O)c1 the result was MtTrpRS: 1.788%; ClpP1P2: -9.163%.